In patent US20210230279A1:
No constants are given. Whether binding was seen depends on the method and setting. Some binding calls cover weakened binding; strength is not graded here.

Chains of the proteins cited; added tags and fusions are not shown. Lines headed by an entry give the natural chain unless they say otherwise; changes in a name come on top.
UniProt P26012: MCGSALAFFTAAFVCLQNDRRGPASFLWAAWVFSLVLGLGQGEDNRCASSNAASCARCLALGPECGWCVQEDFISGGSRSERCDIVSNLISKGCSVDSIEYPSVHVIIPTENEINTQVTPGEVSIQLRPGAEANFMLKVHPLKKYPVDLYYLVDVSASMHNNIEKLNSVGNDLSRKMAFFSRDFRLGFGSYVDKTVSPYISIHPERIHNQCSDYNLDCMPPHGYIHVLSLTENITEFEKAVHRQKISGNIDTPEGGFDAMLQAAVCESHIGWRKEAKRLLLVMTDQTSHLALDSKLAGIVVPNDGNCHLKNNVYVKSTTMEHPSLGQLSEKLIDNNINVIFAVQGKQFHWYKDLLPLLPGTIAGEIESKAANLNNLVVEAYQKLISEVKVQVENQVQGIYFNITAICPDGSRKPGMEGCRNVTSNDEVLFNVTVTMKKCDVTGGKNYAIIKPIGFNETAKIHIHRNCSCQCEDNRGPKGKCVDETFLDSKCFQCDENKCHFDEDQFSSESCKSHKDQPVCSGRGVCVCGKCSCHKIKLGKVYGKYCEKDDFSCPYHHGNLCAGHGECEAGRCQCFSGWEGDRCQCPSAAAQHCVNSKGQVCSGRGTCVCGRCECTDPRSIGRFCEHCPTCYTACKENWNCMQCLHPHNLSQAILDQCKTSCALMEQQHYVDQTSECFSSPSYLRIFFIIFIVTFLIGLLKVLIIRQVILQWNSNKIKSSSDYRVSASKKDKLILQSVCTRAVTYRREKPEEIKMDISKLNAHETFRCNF

Tests used:
[1] = biological target: human integrin β8 subunit (human) (UniProt P26012); assay: staining of formalin-fixed paraffin-embedded tissue, rabbit IgG format
[2] = biological target: human integrin β8 subunit (human) (UniProt P26012); assay: staining of formalin-fixed paraffin-embedded tissues
[3] = biological target: human integrin β8 subunit (human) (UniProt P26012); assay: immunostaining of human stomach biopsies (FIG. 21 and 22)

binding [1] | binding [2] | binding [3] | Binder
binds |  |  | clone C4 as rabbit IgG (antibody, V domains shown) VH: QVQLQQSGAELVRPGTSVKVSCKASGYAFTDYLIEWVRQRPGQGLEWIGVINPETGGTNYNAKFRGRATLTADKSSSSAYMQLSSLTSGDSAVYFCAREAGNYIYAMDYWGQGTSVTVSS VL: DIVMTQSPASLSASVGETVTITCRASVNIYSYLVWYQQKQGKSPQLLVHNAKTLAEGVPSRFSGSGSGTQFSLKINSLQPEDFGSYYCQHHHGTPYTFGGGTKLEIKR
 | binds | binds | clone F9 in IgG format (antibody, V domains shown) VH: QVQLQQSGAELVRPGTSVKVSCKASGYAFTDYLIQWVKQRPGQGLEWIGVINPETGGTNYNAKFRGKATLTADKSSSSAYMQLSSLTSGDSAVYFCAREAGNYIYAMDYWGQGTSVTVSS VL: DIVMTQSPAFLSASVGETVTITCRASVNIYSYLVWYQQKQGKSPQLLVHNAKTLAEGVPSRFSGSGSGTQFSLKINSLQPEDFGSYYCQHHHGTPYTFGGGTKLEIKR
binds |  |  | clone D10 as rabbit IgG (antibody, V domains shown) VH: QVQLQQSGAELVRPGTSVKVSCKASGYAFTDYLIEWVRQRPGQGLEWIGVINPETGGTNYNAKFRGKVTLTADKTSSSAYMQLSSLTSGDSAVYFCAREAGNYIYAMDYWGQGTSVTVSS VL: DIEMTQTPASLSASVGETVTITCRASVNIYSYLVWYQQKQGKSPQLLVHNAKTLAEGVPSRFSGSGSGTQFSLKINSLQPEDFGSYYCQHHHGTPYTFGGGTKLEIKR
